This note sets out measurements from PMC12930632, “Free fatty acid receptor 2 allosterism is defined by cellular context” (Cell Communication and Signaling : CCS, 2026).

Amino acid sequences for entries named in this document (tags omitted).
UniProt P32121: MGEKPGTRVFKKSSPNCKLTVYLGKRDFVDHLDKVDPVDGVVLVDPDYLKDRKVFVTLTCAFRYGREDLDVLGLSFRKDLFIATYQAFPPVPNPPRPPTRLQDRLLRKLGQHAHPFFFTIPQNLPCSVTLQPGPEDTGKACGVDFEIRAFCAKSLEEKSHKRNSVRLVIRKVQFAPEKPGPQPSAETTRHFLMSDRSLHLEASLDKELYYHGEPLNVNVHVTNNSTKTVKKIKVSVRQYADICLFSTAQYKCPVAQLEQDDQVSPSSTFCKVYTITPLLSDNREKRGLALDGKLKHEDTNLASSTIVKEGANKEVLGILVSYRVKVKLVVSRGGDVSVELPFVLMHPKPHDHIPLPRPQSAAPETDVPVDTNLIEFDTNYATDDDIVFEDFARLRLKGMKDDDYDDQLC

These are yes or no findings as the source states them, for the method shown. In cells and extracts the contact can be indirect. Some results given as binding are weak or reduced against the parent protein; the word gives no strength.

Experiment [1] has as its target T1, FFA2R-SmBiT (human) (UniProt O15552).
T1 sequence: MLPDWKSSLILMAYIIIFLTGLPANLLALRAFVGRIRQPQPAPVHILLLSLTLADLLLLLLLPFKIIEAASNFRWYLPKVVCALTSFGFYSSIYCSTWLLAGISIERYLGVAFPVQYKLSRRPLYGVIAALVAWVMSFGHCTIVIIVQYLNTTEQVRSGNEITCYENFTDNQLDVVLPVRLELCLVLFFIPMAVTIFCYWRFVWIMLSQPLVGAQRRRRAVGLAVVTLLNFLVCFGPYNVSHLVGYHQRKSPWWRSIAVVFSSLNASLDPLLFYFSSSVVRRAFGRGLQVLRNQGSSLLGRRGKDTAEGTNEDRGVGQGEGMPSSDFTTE
As to the kind of experiment: condition: only with Cmp58, AZ1729 or their combination, without propionate; split reporter; live HEK293T cells co-transfected with FFA2R-SmBiT and β-arrestin-LgBiT; HBSS, 37 °C, Nano-Glo substrate; Cmp58, AZ1729 or their combination alone, no propionate.

The target in experiment [2] is T1, FFA2R-SmBiT (human). Put plainly: split reporter; live HEK293T cells co-transfected with FFA2R-SmBiT and β-arrestin-LgBiT; HBSS, 37 °C, Nano-Glo substrate; luminescence after propionate (concentration series), with or without Cmp58.

As to “β-arrestin-LgBiT (β-arrestin2) (from UniProt P32121 1-409)”, the binding entry in experiment [1] is “no binding”; in experiment [2], “binds”.
